Data published in publication PMC8573869.
Results are given in words; binding and its absence hold for the method and conditions named. Binding seen in cells or lysates may run through a third protein. Tags and fused reporters may be left off the sequences shown.

Target: T1, FLAG-tagged dominant-active Rab32Q85L (UniProt Q13637)
T1 sequence: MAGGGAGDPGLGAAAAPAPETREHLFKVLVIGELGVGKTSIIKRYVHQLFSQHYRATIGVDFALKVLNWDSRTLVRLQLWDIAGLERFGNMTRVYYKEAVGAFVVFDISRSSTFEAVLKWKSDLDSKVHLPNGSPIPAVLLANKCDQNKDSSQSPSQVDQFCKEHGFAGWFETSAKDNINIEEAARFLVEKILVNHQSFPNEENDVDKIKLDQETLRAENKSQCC
Assay: co-IP; MCF7 cells transfected for 48 h with FLAG-tagged Rab32 constructs; crosslinked with 2 mM DSP 30 min at room temperature, lysed in Chaps buffer (150 mM NaCl, 10 mM Tris pH 7.4, 1 mM EDTA, 1% Chaps); anti-FLAG precipitation on Protein A Sepharose; blot for the endogenous partner

binding: no binding
Substance: endogenous short reticulon-3 (RTN3S) (human (endogenous in MCF7))
